Data taken from the supplement of paper PMC4604168 (melanoma cell lines).
The other results are listed elsewhere or left out. Many values rest on one well or one pass, so single values are uncertain.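 The apoptosis fraction was the count of cleaved-PARP antibody-stained nuclei relative to all DNA-stained nuclei, imaged in 1,536-well plates. Screening doses were set so most cells survived, and baseline and induced cleaved-PARP levels vary greatly across cell lines.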

Assays:
Experiment in all cases: cleaved PARP positive nuclei fraction relative to DMSO control; melanoma cells; higher = more apoptosis
Settings in all cases: library dose: low library concentration; 72 h
501Mel = system: 501Mel
A101D = system: A101D
A2058 = system: A2058
A375 = system: A375
C32 = system: C32
CBRC008 = system: CBRC008 (line from a melanoma biopsy)
CBRC014 = system: CBRC014 (line from a melanoma biopsy)
CBRC016 = system: CBRC016 (line from a melanoma biopsy)
CBRC017 = system: CBRC017 (line from a melanoma biopsy)
CBRC034 = system: CBRC034 (line from a melanoma biopsy)
COLO792 = system: COLO792
COLO800 = system: COLO800
COLO829 = system: COLO829
G361 = system: G361
IPC-298 = system: IPC-298
IST-MEL1 = system: IST-MEL1
LB2518-MEL = system: LB2518-MEL
LOXIMVI = system: LOXIMVI
MEL-HO = system: MEL-HO

Structure (SMILES) | cleaved PARP positive nuclei fraction (501Mel) | cleaved PARP positive nuclei fraction (A101D) | cleaved PARP positive nuclei fraction (A2058) | cleaved PARP positive nuclei fraction (A375) | cleaved PARP positive nuclei fraction (C32) | cleaved PARP positive nuclei fraction (CBRC008) | cleaved PARP positive nuclei fraction (CBRC014) | cleaved PARP positive nuclei fraction (CBRC016) | cleaved PARP positive nuclei fraction (CBRC017) | cleaved PARP positive nuclei fraction (CBRC034) | cleaved PARP positive nuclei fraction (COLO792) | cleaved PARP positive nuclei fraction (COLO800) | cleaved PARP positive nuclei fraction (COLO829) | cleaved PARP positive nuclei fraction (G361) | cleaved PARP positive nuclei fraction (IPC-298) | cleaved PARP positive nuclei fraction (IST-MEL1) | cleaved PARP positive nuclei fraction (LB2518-MEL) | cleaved PARP positive nuclei fraction (LOXIMVI) | cleaved PARP positive nuclei fraction (MEL-HO)
Cn1c(=O)n(-c2ccc(C(C)(C)C#N)cc2)c2c3cc(-c4cnc5ccccc5c4)ccc3ncc21 + COCC[n+]1c2c(n(Cc3cnccn3)c1C)C(=O)c1ccccc1C2=O [YM155] (first compound 0.004 µM, partner dose 0.0004 µM) | 137% | 113% | 80.4% | 247% | 91.6% | 708% | 88.2% | 133% | 158% | 114% | 128% | 150% | 26.7% | 139% | 225% | 145% | 252% | 207% | 33.2%
Nc1nc(F)nc2c1ncn2[C@@H]1O[C@H](CO)[C@@H](O)[C@@H]1O [fludarabine] + OCc1c[nH]c2ccccc12 [Indole-3-carbinol] (first compound 0.2 µM, partner dose 0.8 µM) | 5050% | 158% | 87.1% | 5310% | 222% | 163% | 101% | 89.3% | 138% | 101% | 53.3% | 117% | 61.2% | 230% | 48.6% | 64.7% | 60.9% | 129% | 90.3%
CNC(=O)c1cc(Oc2ccc(NC(=O)Nc3ccc(Cl)c(C(F)(F)F)c3)cc2)ccn1 [sorafenib] + CC(=O)c1c(C)c2cnc(Nc3ccc(N4CCNCC4)cn3)nc2n(C2CCCC2)c1=O [palbociclib] (first compound 0.4 µM, partner dose 0.04 µM) | 117% | 411% | 99.2% | 89.8% | 105% | 110% | 123% | 168% | 120% | 99.7% | 95.7% | 40.3% | 96.9% | 45.5% | 104% | 80% | 118% | 43.2% | 47.3%
C=C(c1ccc(C(=O)O)cc1)c1cc2c(cc1C)C(C)(C)CCC2(C)C [Bexarotene] + COCC[n+]1c2c(n(Cc3cnccn3)c1C)C(=O)c1ccccc1C2=O [YM155] (first compound 2 µM, partner dose 0.0004 µM) | 308% | 45.1% | 107% | 23.4% | 28.6% | 321% | 120% | 76.9% | 92.8% | 24.4% | 83.2% | 102% | 84.8% | 158% | 79.4% | 34.2% | 101% | 128% | 63.4%
CO[C@H]1C[C@@H]2CC[C@@H](C)[C@@](O)(O2)C(=O)C(=O)N2CCCC[C@H]2C(=O)O[C@H]([C@H](C)C[C@@H]2CC[C@@H](OCCO)[C@H](OC)C2)CC(=O)[C@H](C)/C=C(\C)[C@@H](O)[C@@H](OC)C(=O)[C@H](C)C[C@H](C)/C=C/C=C/C=C/1C [everolimus] + C[C@]1(c2nc3c(C(N)=O)cccc3[nH]2)CCCN1 [Veliparib] (first compound 0.02 µM, partner dose 1.4 µM) | 1420% | 107% | 88.6% | 862% | 91.3% | 133% | 113% | 4180% | 174% | 50.9% | 118% | 219% | 82.6% | 207% | 316% | 39.2% | 74.1% | 422% | 121%
O=C(O)c1ccc2c(c1)nc(Nc1cccc(Cl)c1)c1ccncc12 + CCCS(=O)(=O)Nc1ccc(F)c(C(=O)c2c[nH]c3ncc(Cl)cc23)c1F [PLX4720] (first compound 0.4 µM, partner dose 0.08 µM) | 86.2% | 106% | 123% | 190% | 399% | 113% | 114% | 216% | 158% | 76% | 94.8% | 95.8% | 105% | 129% | 134% | 191% | 45.2% | 42% | 208%
